Test results from publication PMC5634508.
Results are given in words; binding and its absence hold for the method and conditions named. In cells and extracts the contact can be indirect. Some entries that bind do so weakly or less than the wild type. Tags and fused reporters may be left off the sequences shown.

Chains of the proteins cited; added tags and fusions are not shown.
UniProt Q9UHX1: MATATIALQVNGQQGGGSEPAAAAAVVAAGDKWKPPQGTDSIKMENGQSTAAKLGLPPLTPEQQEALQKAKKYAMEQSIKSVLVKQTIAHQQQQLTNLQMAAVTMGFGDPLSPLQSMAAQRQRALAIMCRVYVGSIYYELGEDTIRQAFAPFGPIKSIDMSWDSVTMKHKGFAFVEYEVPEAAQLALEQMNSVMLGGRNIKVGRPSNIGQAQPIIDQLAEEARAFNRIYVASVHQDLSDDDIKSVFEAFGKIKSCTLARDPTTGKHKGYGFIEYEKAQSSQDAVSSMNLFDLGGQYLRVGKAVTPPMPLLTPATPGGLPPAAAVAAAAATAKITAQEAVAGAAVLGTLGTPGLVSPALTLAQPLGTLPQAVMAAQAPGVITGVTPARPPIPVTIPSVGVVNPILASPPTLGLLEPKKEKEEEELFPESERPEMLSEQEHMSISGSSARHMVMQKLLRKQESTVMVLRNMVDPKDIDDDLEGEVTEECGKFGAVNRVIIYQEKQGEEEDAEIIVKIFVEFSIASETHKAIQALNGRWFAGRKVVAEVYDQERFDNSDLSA
UniProt Q9NQB0: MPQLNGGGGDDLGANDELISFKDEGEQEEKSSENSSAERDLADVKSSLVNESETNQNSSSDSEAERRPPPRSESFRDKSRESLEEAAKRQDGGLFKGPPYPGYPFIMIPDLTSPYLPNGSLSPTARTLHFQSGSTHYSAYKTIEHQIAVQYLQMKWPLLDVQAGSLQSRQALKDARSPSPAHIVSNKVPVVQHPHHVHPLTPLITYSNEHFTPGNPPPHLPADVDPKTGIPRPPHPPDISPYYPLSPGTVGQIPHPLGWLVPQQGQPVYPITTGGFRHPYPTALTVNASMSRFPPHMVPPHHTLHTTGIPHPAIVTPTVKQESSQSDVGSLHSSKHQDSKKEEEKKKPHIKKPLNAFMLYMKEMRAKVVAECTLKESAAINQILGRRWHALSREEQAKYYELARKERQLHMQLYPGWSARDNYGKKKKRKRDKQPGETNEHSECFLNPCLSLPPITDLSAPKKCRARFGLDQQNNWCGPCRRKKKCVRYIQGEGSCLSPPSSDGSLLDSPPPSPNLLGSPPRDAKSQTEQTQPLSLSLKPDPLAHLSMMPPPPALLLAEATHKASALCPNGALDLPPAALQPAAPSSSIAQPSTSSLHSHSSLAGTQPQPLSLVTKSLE

Biological target: HA-tagged PUF60 (wild type) (human) (UniProt Q9UHX1)
Assay: co-IP; cells co-transfected with HA-PUF60 or HA-PUF60-D2 and FLAG-TCF7L2 or FLAG-HNF4α, lysed at day 2 post-transfection in 0.5% NP-40 in PBS; IP with anti-HA antibody and Protein G agarose beads, 60 min at 4 °C, 4 washes with lysis buffer; immunoblot with anti-FLAG, anti-HA

Molecule	binding
FLAG-tagged TCF7L2 (transcription factor 7-like 2) (from UniProt Q9NQB0 1-619)	binds
FLAG-tagged HNF4α (protein, UniProt P41235 1-474) MRLSKTLVDMDMADYSAALDPAYTTLEFENVQVLTMGNDTSPSEGTNLNAPNSLGVSALCAICGDRATGKHYGASSCDGCKGFFRRSVRKNHMYSCRFSRQCVVDKDKRNQCRYCRLKKCFRAGMKKEAVQNERDRISTRRSSYEDSSLPSINALLQAEVLSRQITSPVSGINGDIRAKKIASIADVCESMKEQLLVLVEWAKYIPAFCELPLDDQVALLRAHAGEHLLLGATKRSMVFKDVLLLGNDYIVPRHCPELAEMSRVSIRILDELVLPFQELQIDDNEYAYLKAIIFFDPDAKGLSDPGKIKRLRSQVQVSLEDYINDRQYDSRGRFGELLLLLPTLQSITWQMIEQIQFIKLFGMAKIDNLLQEMLLGGSPSDAPHAHHPLHPHLMQEHMGTNVIVANTMPTHLSNGQMCEWPRPRGQAATPETPQPSPPGGSGSEPYKLLPGAVATIVKPLSAIPQPTITKQEVI	no binding
